Test results: US20020155565A1 (priority 2000, published 2002)

What was measured:
[1] = general procedure: Fmoc solid-phase peptide synthesis; 2-chlorotrityl chloride resin; DIC/HOBt; details: whole synthesis, scale of the general procedure 200 mg resin, 0.158
[2] = general procedure: Fmoc solid-phase peptide synthesis; H-Sar-2-chlorotritylchloride-resin; DIC/HOBt; details: conjugation step

Substance | final HPLC purity [1] | final HPLC purity [2]
Benzyloxycarbonyl-Pro-Ala-Gly-Sar-OH | HPLC>95% | –
Benzyloxycarbonyl-Pro-Ala-Gly-Sar-Doxorubicin | – | HPLC>95%
